Reference: publication PMC11194501
No constants are given. Whether binding was seen depends on the method and setting. Some binding calls cover weakened binding; strength is not graded here. Tags and fused reporters may be left off the sequences shown.

Sequences of proteins named here, by UniProt entry; tags and fusion partners are left off. A change or cut given only in a name is not applied to a line headed by its entry.
UniProt P02550: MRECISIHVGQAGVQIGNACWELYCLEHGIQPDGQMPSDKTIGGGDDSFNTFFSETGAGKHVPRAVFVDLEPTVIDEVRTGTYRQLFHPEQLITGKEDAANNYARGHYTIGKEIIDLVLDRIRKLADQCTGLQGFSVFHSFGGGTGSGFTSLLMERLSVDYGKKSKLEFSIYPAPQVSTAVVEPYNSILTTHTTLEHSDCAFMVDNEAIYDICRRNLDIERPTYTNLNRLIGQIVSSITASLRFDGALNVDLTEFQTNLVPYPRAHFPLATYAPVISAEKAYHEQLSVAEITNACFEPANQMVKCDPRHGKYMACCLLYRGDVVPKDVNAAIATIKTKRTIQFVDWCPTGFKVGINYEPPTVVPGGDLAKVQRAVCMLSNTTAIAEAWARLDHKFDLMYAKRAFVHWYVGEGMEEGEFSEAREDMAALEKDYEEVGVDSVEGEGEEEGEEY

Target: T1, Cep57S (Cep57 residues 56 to 264 fused to 334 to 433) (human) (UniProt Q86XR8)
T1 sequence: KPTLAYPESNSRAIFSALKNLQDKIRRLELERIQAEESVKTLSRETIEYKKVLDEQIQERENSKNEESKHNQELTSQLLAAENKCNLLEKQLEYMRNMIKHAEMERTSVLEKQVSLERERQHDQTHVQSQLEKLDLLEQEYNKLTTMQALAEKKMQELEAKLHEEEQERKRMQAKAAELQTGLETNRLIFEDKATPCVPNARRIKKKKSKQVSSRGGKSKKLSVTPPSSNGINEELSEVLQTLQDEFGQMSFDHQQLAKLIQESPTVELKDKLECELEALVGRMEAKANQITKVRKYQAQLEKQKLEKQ
Test: pull-down; His-tagged Cep57S held on a Ni-NTA spin column, 0.1 mg α/β-tubulin added, 4 °C; 1X PBS pH 8.0, 1 mM 2-mercaptoethanol, 20 mM imidazole, 0.1% Triton X100, 10% glycerol; eluted with 400 mM imidazole, SDS-PAGE; both purified

Substance: α/β-tubulin (from UniProt P02550 1-451; P02554 1-445) (complex)
- binding: binds
